# Percent effect of library compounds

Amino acid sequences for entries named in this document (tags omitted).
UniProt P9WFT3, whole entry: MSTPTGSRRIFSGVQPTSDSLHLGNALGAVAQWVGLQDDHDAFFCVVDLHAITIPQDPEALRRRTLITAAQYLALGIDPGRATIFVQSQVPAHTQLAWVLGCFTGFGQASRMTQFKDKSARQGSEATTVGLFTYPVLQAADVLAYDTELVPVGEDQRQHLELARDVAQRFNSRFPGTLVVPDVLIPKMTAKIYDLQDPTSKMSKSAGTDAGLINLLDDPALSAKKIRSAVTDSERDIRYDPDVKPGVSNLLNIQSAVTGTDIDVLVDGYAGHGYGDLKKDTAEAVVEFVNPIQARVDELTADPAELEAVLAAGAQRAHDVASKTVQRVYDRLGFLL

Source: ChEMBL document CHEMBL3988442, “University of Dundee, Small-Polar-MMV Screening Library” (2021).

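Enzyme assay of tryptophanyl-tRNA synthetase; the read-out is not stated. Target: Tryptophan-tRNA ligase, Mycobacterium tuberculosis (UniProt P9WFT3). Concentration: 10 µM. Higher most likely means stronger inhibition; the record gives no direction and few retests gave an IC50. About 65,000 compounds were tested under these conditions; 0.098% (about 64) showed 50% or more at least once.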

The filed quantity is “Percent Effect” (%). The controls that fix the scale are not given in the record; negative values are as filed. This is an unselected part of the compounds tested.

compound,effect
c1cncc(COCC2CN(Cc3ccsc3)Cc3ccnn3C2)c1 (stereo not shown),-5.692%
CCOCC(=O)NC1(c2cccc(Cl)c2)CC1,-0.08818%
COc1ccc(NC(=O)N2CCC3(CC2)NC(=O)CC3C(=O)O)c(C)c1 (stereo not shown),-2.741%
Cc1ccc(N(C)S(=O)(=O)c2cc(C(=O)O)cs2)c(C)c1,-3.171%
CCc1n[nH]c(C2CN(CCCS(C)(=O)=O)CCO2)n1 (stereo not shown),7.412%
CC[C@H](C)[C@H](NC(=O)Cn1ccc2ccc(F)cc21)C(=O)OC,-2.716%
Cc1cc(C)nc(CN(C)C(=O)C(c2cccnc2)N2CCCC2)c1 (stereo not shown),-4.741%
Cc1nc[nH]c1CN1CCCC12CCN(c1nc3ccccc3s1)CC2,-3.525%
COc1ccc(Cn2nnnc2SCC2CCCN(C)C2)cc1 (stereo not shown),-1.694%
Cc1cccc(Sc2nccn(C)c2=O)c1,4.938%
Cc1ccc(-c2cnnc(N3CCCC3c3nonc3C)n2)o1 (stereo not shown),5.125%
CCOc1ccc(C(=O)CCC(=O)N(C)Cc2noc(C)n2)cc1C,-4.078%
O=C1OCCN1c1cccc(CNCc2cc(F)ccc2F)c1,6.399%
Fc1ccc2[nH]c(CO[C@H]3CN(CC4CC4)C[C@H]3F)nc2c1,-6.484%
O=C(O)c1cc(S(=O)(=O)Nc2cccc3c2OCCO3)ccc1F,2.442%
CC(C)(CN1CCC2(CCCNC2)C1)N1CCOCC1 (stereo not shown),8.311%
O=C(c1cc(Cl)c2c(c1)OCO2)N1CCN(c2nccs2)CC1,2.067%
Cc1nc(COC[C@@H]2CC[C@H]3NCC[C@H]3O2)cs1,8.236%
O=C(NCCn1cccn1)c1ccn(-c2cccc(F)c2)n1,-4.066%
Cn1cc(N2CC3(CCN(CC4CCOCC4)CC3)OCC2=O)cn1,-0.804%
Cc1ccc(Oc2ncccc2CNC2CCSCC2)cn1,-3.254%
O=C(NCCc1c[nH]cn1)C1CCCN(C2CCOCC2)C1 (stereo not shown),0.1837%
COc1cc(C)ccc1OCc1nc(C(=O)N2CCCC2)co1,-0.6261%
Cc1ccc(CN2Cc3nnn(C)c3C(COCC(=O)N(C)C)C2)s1 (stereo not shown),-3.539%
c1cncc(OCC2CN(Cc3ccco3)Cc3nccn3C2)c1 (stereo not shown),5.181%
Cn1nc(C2CCCC2)c(-c2ccc3c(c2)OCO3)c1N,2.221%
Cc1noc(C(C)C)c1C(=O)N1CCC(n2cccn2)CC1,3.374%
O=C(c1ccc2[nH]cnc2c1)N1CCCC1Cn1cccn1 (stereo not shown),6.648%
COc1ccc(CN2CCCC(n3cccn3)C2)c(Cl)c1OC (stereo not shown),-7.516%
CC(C)NC(=O)[C@H]1CCS(=O)(=O)[C@@H]2CN(c3ncccn3)C[C@H]12,-3.614%
Fc1ccccc1-c1nccnc1C1CCCNC1 (stereo not shown),2.353%
Cc1ccsc1C(=O)Nc1cnn(CC(=O)NC2CCCC2)c1,-3.771%
CCC[C@]12CN3C[C@](CCC)(CN(C1)C3c1[nH]c(=O)[nH]c(=O)c1C)C2=O (stereo partly shown),1.075%
Cc1ccc(Nc2cc(N3CCN(S(C)(=O)=O)CC3)nc(C)n2)cc1,2.249%
CC(Cn1cccn1)NC(=O)Nc1nncs1 (stereo not shown),-4.061%
CCc1sc(-c2nnc(CNCCn3cc(C)cn3)o2)cc1C,-1.687%
O=C1CN(C(=O)c2cccc(OCc3cscn3)c2)CCN1,1.471%
CC(C)(C)c1cc(=O)n2c(n1)SCC(C(=O)NCc1ccccn1)C2 (stereo not shown),1.708%
Cc1nc(CN2CCCN(C(=O)c3sccc3C#N)CC2)cs1,5.893%
N#Cc1ccccc1OCCN1CCCC1Cn1cccn1 (stereo not shown),1.643%
Cc1ccc(CN2CCC3(CC2)CN(c2ccccc2)C(=O)CO3)o1,0.7656%
O=C(CO)N1CC2(CCN(c3ccccc3)C2)C1,-2.745%
Cc1ccoc1C(=O)N(CCN(C)C)Cc1ccccn1,-3.077%
Cc1nc2cc(C3CCCCN3C(=O)C3CC3)nn2c(O)c1C (stereo not shown),-5.074%
O=C(c1cnccn1)N1CCc2ncnc(C3CCOC3)c2CC1 (stereo not shown),0.2275%
Cc1ccc(CN2CCOC3(COCCN(S(C)(=O)=O)C3)C2)s1 (stereo not shown),4.348%
O=C(C1CCCN(C2CCOCC2)C1)N1CCc2ncccc2C1 (stereo not shown),7.342%
CN(Cc1ccco1)Cc1cnc2n1CCN(S(C)(=O)=O)CC2,7.849%
Cc1cnc(N2C[C@@H]3[C@@H](C2)OCC(=O)N3CC(C)C)nc1,-4.167%
CN(C)CCOCc1cncc2c1CCN(Cc1ccccn1)C2,0.8292%
CS(=O)(=O)c1nccn1CCOc1ccccc1F,1.56%
Fc1cc(CNCc2ccc3c(c2)CCO3)ccc1N1CCOCC1,-1.78%
CC(O)CNC(=O)Nc1ccc(Br)cc1Br (stereo not shown),4.693%
Cn1cc(NC(=O)CNC(=O)N2CCN(c3cccc(Cl)c3)CC2)cn1,5.851%
CN(C)Cc1nnc(C2CCCN(c3cc(C(F)(F)F)ccn3)C2)n1C (stereo not shown),0.2894%
COC[C@]1(O)CCN(Cc2c[nH]c(CC3CCCC3)n2)CC1(C)C,-3.612%
CN(C)c1cc(CNC(=O)c2ccccc2S(C)(=O)=O)ccn1,-4.672%
COCCNC(=O)[C@H]1CN(Cc2sccc2C)C[C@H]2OCC[C@@H]12,-3.153%
NCC1CN(C(=O)c2cccc(-n3cccn3)c2)CCO1 (stereo not shown),-5.307%
O=C1NCCN(Cc2ccccc2)C1CC(=O)N1CCc2n[nH]cc2C1 (stereo not shown),-3.207%
Cc1noc(C)c1CC(=O)Nc1ccn(CC(N)=O)n1,-3.744%
Cc1cc(C)n(-c2ccc(N3CCC4(CC3)OCC(C)O4)nc2)n1 (stereo not shown),-31.94%
Cc1ccc2c(c1)c(CNC(=O)C1CC(=O)N(C3CCCC3)C1)nn2C (stereo not shown),-9.056%
CCc1ccc(C2COCCN2C(=O)Nc2ccc(C#N)cc2)o1 (stereo not shown),1.188%
CCn1ccnc1CN1CCCC(N(C)CCc2ccccc2)C1 (stereo not shown),0.6522%
CS(=O)(=O)c1cnc(C2CCCC2)nc1C1CCCNC1 (stereo not shown),0.7101%
Cc1nnc2n1CCN(C(=O)CN1C(=O)CCOc3ccccc31)C2,-4.263%
Cc1nn2c(N3CCC(O)CC3)cc(-c3ccccc3)nc2c1C,3.865%
Fc1cccc(-c2cccc(N3CCC(NC4CCCOC4)CC3)c2)c1 (stereo not shown),-4.112%
Cc1ncsc1C(=O)NCCNc1ncccc1C#N,-0.7062%
CC(=O)N1CCC2(CC1)CCN(C(=O)c1cccc(C(F)(F)F)c1)C2,0.3487%
CN(C)C(=O)N1C[C@@H]2CCCO[C@@H]2[C@H](N(C)Cc2ccco2)C1,-2.056%
Cc1cccc(NC(=O)CCNCc2c(C)nn(C)c2N(C)C)n1,-5.909%
Cc1cc(C)c2nc(CN3CCC(CN)C3)cc(O)c2c1 (stereo not shown),0.243%
CCOCc1ccc(CNc2cncc(-n3cccn3)n2)cc1,15.95%
Cc1noc(C)c1CN1CCN(C(=O)Cn2cncn2)CC1,-0.5029%
CCc1ccc(C(=O)N2CCCC3(CCCC(=O)N3C)C2)cc1 (stereo not shown),-3.317%
CC(C)CNC(=O)c1cc2c(s1)CCN2S(C)(=O)=O,-0.266%
CCOc1ccc(CNC(=O)N(C)Cc2ncnn2C)cc1C,1.49%
Cc1cc(NC(=O)CO)nn1-c1ccc(Cl)cc1Cl,-6.345%
CN(Cc1noc(C(C)(C)C)n1)C1CCCN(c2cccnn2)C1 (stereo not shown),33.3%